Drawing on publication PMC9217950, this text covers binding for two molecules.

Chains of the proteins cited; added tags and fusions are not shown.
UniProt P25963: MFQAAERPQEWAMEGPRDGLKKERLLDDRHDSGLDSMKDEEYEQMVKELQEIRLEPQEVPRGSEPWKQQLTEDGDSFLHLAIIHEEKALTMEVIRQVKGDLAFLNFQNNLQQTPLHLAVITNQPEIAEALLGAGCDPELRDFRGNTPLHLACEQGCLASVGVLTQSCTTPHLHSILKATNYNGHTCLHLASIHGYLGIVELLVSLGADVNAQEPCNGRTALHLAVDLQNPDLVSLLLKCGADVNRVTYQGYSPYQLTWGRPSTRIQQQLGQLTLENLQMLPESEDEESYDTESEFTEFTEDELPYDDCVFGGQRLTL
UniProt Q96J77: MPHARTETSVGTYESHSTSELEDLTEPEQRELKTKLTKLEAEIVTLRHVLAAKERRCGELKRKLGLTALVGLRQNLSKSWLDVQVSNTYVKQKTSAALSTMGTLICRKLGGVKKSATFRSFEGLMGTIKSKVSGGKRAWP

This assay addresses AGIA-AirID-IκBα (human) (UniProt P25963). The assay is described as follows: co-IP; lysate of HEK293T cells stably expressing AGIA-AirID-IκBα transfected with FLAG constructs; IP lysis buffer (25 mM Tris-HCl pH 7.5, 150 mM NaCl, 1 mM EDTA, 1% NP-40, 5% glycerol); anti-AGIA antibody, protein A Dynabeads, 4 °C; anti-FLAG blot.

Results are given in words; binding and its absence hold for the method and conditions named. Binding seen in cells or lysates may run through a third protein. Some results given as binding are weak or reduced against the parent protein; the word gives no strength. Tags and fused reporters may be left off the sequences shown.

As to “TPD52L3 in pCAGGS-MCS-FLAG (from UniProt Q96J77 1-140)”, the binding result was “binds”.

B1: PRDX3 in pCAGGS-MCS-FLAG (protein, UniProt P30048 62-256)
chain: APAVTQHAPYFKGTAVVNGEFKDLSLDDFKGKYLVLFFYPLDFTFVCPTEIVAFSDKANEFHDVNCEVVAVSVDSHFSHLAWINTPRKNGGLGHMNIALLSDLTKQISRDYGVLLEGSGLALRGLFIIDPNGVIKHLSVNDLPVGRSVEETLRLVKAFQYVETHGEVCPANWTPDSPTIKPSPAASKEYFQKVNQ
Consider B1, for which the binding result is reported as “binds”.
